Values from PubChem BioAssay AID1259308 (NCATS, 2017)

- Purpose: 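Candidate targets for better recombinant protein yield in mammalian cells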 (primary screen)
- Cells: human HEK293 embryonic kidney cells stably expressing firefly luciferase (HEK-CMV-Luc2-Hygro)
- Reagents: single siRNA against human genes, 0.8 pmol siRNA per well
- Time to read-out: 72 h
- Measurement: 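Reporter luminescence and viable-cell signal on separate replicate plates, given as percent of non-targeting control and median/MAD z-scores, plus per-cell luciferase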
- Reading the numbers: total luciferase, z-score: higher = more reporter protein produced
- Active means: 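Active when the median/MAD z-score for overall luciferase is greater than 3; a gene was taken forward for validation with new siRNAs if at least two of its three siRNAs passed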
- Calls: active = raised luciferase; inactive = no rise
Here is an unselected part of about 59,000 deposited reagents. About 1,510 of them (2.6%) were called active. 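Calls use total luciferase alone and ignore viability, so some active siRNAs may act by altering cell number.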 The numbers tell different reagents against one gene apart. Further read-outs or replicates are left out here.

total luciferase, z-score, by target and reagent
GOLPH3 (golgi phosphoprotein 3): #1 -0.289 inactive; #2 -0.729 inactive; #3 -0.293 inactive
HIGD1A (HIG1 hypoxia inducible domain family member 1A): #1 2.35 inactive; #2 -0.367 inactive; #3 1.97 inactive
ARL2 (ARF like GTPase 2): #1 -0.579 inactive; #2 1.49 inactive; #3 -1.33 inactive
NOX3 (NADPH oxidase 3): #1 -0.249 inactive; #2 -0.832 inactive; #3 -0.476 inactive
UQCRHP2 (ubiquinol-cytochrome c reductase hinge protein pseudogene 2): #1 1.46 inactive; #2 0.519 inactive; #3 -0.601 inactive
LOC649305 (retired record): #1 -1.24 inactive; #2 2.14 inactive; #3 0.924 inactive
MMRN2 (multimerin 2): #1 0.692 inactive; #2 0.212 inactive; #3 1.3 inactive
PDGFC (platelet derived growth factor C): #1 0.537 inactive; #2 -0.644 inactive; #3 0.043 inactive
PSME3 (proteasome activator subunit 3): #1 -1.06 inactive; #2 -1.27 inactive; #3 -0.15 inactive
GPR50 (G protein-coupled receptor 50): #1 0.282 inactive; #2 -1.28 inactive; #3 -0.808 inactive
ZNF177 (zinc finger protein 177): #1 0.827 inactive; #2 0.323 inactive; #3 -1.74 inactive

Copied from above for reference:
total luciferase, z-score, by target and reagent
PDGFC (platelet derived growth factor C): #2 -0.644 inactive; #3 0.043 inactive

The listing continues:
total luciferase, z-score, by target and reagent
YWHAH: #1 0.829 inactive; #2 -0.109 inactive; #3 0.555 inactive
CTSK (cathepsin K): #1 -0.48 inactive; #2 0.735 inactive; #3 1.29 inactive
LINC00469 (long independently transcribed non-coding RNA 469): #1 0.151 inactive; #2 -0.451 inactive; #3 0.0415 inactive
KLHDC3 (kelch domain containing 3): #1 1.77 inactive; #2 -0.831 inactive; #3 -0.171 inactive
PCARE (photoreceptor cilium actin regulator): #1 0.214 inactive; #2 -0.931 inactive; #3 5 active
CIBAR1P2 (CIBAR1 pseudogene 2): #1 -3.13 inactive; #2 -1.1 inactive; #3 1.31 inactive
TAFA3 (TAFA chemokine like family member 3): #1 -1.25 inactive; #2 2.85 inactive; #3 -0.197 inactive
ADCY3 (adenylate cyclase 3): #1 -0.608 inactive; #2 -0.615 inactive; #3 0.379 inactive
